These are literature values, as cited in patent US20150335610A1, “PDK4 INHIBITOR AND USE THEREOF” (priority 2012, published 2015).

In this series the test system is PDK. Conditions: background statement; cited from earlier work.

`CN[C@@H]1C[C@H]2O[C@@](C)([C@@H]1OC)n1c3ccccc3c3c4c(c5c6ccccc6n2c5c31)C(=O)NC4` [staurosporine]: the “inhibition of PDK” value is “not inhibited”.
